For three substances, binding results are on record in PMC3927958.

Sequences of proteins named here, by UniProt entry; tags and fusion partners are left off.
UniProt Q8VCC8: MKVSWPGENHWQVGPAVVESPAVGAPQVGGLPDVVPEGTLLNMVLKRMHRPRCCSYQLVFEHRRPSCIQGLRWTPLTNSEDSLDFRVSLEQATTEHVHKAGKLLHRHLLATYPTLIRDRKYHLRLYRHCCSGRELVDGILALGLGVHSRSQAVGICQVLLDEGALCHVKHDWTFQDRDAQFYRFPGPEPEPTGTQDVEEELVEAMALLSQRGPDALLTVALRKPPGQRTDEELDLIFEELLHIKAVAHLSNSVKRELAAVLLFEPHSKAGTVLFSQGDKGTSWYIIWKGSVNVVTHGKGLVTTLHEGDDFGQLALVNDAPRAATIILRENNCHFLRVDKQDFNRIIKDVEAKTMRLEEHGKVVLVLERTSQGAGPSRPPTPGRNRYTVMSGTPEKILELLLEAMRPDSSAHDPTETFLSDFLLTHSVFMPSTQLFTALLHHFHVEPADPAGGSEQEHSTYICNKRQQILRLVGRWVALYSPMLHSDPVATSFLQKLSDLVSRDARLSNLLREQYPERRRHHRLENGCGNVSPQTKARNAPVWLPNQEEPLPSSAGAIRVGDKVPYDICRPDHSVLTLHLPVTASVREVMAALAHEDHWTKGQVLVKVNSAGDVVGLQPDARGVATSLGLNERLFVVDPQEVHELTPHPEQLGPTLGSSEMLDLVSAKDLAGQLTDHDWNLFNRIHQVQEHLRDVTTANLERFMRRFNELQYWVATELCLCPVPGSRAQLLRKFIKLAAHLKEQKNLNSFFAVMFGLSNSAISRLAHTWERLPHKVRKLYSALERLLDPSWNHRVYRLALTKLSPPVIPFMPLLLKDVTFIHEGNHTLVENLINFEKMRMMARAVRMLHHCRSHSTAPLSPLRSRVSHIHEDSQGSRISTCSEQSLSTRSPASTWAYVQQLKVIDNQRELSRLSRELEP
UniProt Q9EQZ6: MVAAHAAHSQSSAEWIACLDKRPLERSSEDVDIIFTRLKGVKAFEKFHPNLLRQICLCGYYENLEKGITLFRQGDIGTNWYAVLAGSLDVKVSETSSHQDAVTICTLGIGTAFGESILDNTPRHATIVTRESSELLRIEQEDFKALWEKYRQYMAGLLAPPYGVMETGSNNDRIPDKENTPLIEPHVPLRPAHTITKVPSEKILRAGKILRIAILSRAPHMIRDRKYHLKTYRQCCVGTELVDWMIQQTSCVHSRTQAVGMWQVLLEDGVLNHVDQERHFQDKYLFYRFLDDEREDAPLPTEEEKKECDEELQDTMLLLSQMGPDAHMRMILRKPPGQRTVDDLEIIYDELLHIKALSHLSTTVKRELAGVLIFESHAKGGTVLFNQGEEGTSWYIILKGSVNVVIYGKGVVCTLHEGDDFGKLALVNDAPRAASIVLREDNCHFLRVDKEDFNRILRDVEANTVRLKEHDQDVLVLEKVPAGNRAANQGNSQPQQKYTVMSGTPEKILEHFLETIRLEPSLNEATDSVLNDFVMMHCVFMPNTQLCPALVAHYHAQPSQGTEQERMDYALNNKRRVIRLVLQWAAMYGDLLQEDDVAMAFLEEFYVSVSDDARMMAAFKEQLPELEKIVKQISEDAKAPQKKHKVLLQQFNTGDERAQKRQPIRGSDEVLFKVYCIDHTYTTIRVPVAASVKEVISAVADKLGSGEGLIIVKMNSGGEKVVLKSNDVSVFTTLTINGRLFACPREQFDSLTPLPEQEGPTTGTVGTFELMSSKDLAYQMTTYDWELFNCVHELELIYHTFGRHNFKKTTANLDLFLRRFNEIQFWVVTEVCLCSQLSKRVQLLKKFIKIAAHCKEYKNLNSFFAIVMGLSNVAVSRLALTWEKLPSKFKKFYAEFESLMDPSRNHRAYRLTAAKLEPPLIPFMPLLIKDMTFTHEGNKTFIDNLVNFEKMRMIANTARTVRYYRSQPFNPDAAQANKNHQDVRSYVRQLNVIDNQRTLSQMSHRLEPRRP
UniProt Q9QZQ1: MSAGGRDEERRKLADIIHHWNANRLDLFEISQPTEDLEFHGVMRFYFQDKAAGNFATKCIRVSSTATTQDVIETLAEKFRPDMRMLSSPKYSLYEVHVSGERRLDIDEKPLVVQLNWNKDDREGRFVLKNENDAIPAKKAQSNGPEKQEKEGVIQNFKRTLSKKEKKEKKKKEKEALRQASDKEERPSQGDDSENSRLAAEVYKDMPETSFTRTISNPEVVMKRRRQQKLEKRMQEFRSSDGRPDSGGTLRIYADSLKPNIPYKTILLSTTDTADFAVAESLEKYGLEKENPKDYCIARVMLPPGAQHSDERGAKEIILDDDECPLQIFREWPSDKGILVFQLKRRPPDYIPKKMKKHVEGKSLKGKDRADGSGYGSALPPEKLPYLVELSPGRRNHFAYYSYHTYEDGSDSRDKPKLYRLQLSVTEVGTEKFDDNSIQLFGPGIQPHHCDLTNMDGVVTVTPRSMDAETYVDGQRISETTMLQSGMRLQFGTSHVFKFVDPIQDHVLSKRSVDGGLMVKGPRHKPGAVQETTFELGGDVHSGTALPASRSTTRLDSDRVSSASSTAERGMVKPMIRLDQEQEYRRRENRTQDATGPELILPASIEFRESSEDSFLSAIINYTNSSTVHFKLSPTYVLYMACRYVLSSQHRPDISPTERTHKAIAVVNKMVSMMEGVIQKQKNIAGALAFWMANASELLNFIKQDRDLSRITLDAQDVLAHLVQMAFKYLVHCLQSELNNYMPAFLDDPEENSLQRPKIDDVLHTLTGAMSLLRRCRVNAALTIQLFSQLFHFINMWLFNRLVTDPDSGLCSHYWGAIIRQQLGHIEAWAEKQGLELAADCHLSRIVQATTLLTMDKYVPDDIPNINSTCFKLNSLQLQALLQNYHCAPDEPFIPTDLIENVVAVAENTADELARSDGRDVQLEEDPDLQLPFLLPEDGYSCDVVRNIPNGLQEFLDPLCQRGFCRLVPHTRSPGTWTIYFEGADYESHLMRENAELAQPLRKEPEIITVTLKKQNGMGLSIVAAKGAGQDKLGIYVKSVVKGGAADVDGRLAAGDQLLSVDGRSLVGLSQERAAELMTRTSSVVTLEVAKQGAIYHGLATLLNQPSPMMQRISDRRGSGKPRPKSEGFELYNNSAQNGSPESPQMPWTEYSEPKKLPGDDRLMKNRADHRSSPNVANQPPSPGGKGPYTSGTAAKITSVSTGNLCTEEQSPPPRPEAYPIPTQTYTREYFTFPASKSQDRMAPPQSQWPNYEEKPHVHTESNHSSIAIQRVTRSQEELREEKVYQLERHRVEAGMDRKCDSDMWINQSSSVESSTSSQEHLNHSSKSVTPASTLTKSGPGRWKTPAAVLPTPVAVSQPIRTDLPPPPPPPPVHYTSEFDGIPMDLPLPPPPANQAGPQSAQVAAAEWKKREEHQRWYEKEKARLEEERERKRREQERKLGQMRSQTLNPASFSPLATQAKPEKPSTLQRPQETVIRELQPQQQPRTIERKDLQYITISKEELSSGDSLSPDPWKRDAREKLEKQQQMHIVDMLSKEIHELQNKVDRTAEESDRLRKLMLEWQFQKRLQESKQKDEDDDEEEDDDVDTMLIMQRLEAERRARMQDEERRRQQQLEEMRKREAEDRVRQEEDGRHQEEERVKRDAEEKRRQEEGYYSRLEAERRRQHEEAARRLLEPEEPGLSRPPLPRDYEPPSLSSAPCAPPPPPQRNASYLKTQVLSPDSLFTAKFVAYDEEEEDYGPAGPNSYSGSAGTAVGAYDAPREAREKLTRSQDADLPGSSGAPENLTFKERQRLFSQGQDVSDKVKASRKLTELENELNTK

Results are given in words; binding and its absence hold for the method and conditions named. Binding seen in cells or lysates may run through a third protein. Some results given as binding are weak or reduced against the parent protein; the word gives no strength.

This assay addresses T1, junctional adhesion molecule-A (mouse (endogenous in lung endothelial cells)) (UniProt O88792).
T1 sequence: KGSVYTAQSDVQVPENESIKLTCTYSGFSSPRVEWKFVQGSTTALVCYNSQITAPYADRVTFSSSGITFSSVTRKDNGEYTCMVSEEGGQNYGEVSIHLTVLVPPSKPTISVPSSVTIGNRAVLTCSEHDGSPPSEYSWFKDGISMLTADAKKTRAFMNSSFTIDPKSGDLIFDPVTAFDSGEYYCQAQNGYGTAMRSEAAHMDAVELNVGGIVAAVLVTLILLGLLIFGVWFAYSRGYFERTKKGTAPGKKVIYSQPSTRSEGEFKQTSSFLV
As to the kind of experiment: co-IP; confluent murine JAM-A-WT endothelial cells incubated with dithiobis-(succinimidyl) propionate (cross-linker) 30 min at 37°C, lysed in RIPA buffer; JAM-A or EPAC-2 immunoprecipitated overnight from 8 mg total extract, IgG as control; immunoblotting. On the technique in general: A western blot detects proteins with antibodies after separation by electrophoresis.

Take EPAC-1 (from UniProt Q8VCC8 1-918): the binding result is “binds”.
Take EPAC-2 (from UniProt Q9EQZ6 1-1011): the binding entry was “binds”.
In the case of afadin (from UniProt Q9QZQ1 1-1820) it was “binds”.
